Experimental data reported in publication PMC7022552, “Structural and Functional Analyses of Human ChaC2 in Glutathione Metabolism” (Biomolecules, 2019).
No constants are given. Whether binding was seen depends on the method and setting.

By UniProt entry, the sequences of proteins in these tests, tags left out. Where a name states a change or a piece, a line headed by the entry shows the natural chain unless it says otherwise.
UniProt Q8WUX2: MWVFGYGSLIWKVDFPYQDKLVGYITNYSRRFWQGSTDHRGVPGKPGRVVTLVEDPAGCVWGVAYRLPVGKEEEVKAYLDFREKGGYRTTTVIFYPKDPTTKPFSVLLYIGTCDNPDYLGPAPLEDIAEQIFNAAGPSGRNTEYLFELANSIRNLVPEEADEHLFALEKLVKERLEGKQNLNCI

What was measured:
human ChaC2 E74Q (human) [1] = biological target: human ChaC2 E74Q (human) (UniProt Q8WUX2); test: native gel or EMSA; native-PAGE of the main peak fractions of the size-exclusion chromatography; both purified
human ChaC2 E74Q (human) [2] = biological target: human ChaC2 E74Q (human) (UniProt Q8WUX2); test: SEC; HiLoad 16/600 Superdex 75 pg, 20 mM Tris-HCl pH 7.1, 150 mM NaCl, 5 mM DTT, 2% glycerol, 1 mL/min, calibrated with molecular weight standards; both purified
human ChaC2 E74Q (human) [3] = biological target: human ChaC2 E74Q (human) (UniProt Q8WUX2); test: crystal structure; ChaC2 E74Q and ChaC2 E83Q crystals, 3 M sodium acetate trihydrate pH 7.0, improved with 10 mM GSH or 5-L-oxoproline; three molecules (A, B, C) in the asymmetric unit; both purified
human ChaC2 E83Q (human) [4] = biological target: human ChaC2 E83Q (human) (UniProt Q8WUX2); test: native gel or EMSA; native-PAGE of the main peak fractions of the size-exclusion chromatography; both purified
human ChaC2 E83Q (human) [5] = biological target: human ChaC2 E83Q (human) (UniProt Q8WUX2); test: SEC; HiLoad 16/600 Superdex 75 pg, 20 mM Tris-HCl pH 7.1, 150 mM NaCl, 5 mM DTT, 2% glycerol, 1 mL/min, calibrated with molecular weight standards; both purified
human ChaC2 E83Q (human) [6] = biological target: human ChaC2 E83Q (human) (UniProt Q8WUX2); test: crystal structure; ChaC2 E74Q and ChaC2 E83Q crystals, 3 M sodium acetate trihydrate pH 7.0, improved with 10 mM GSH or 5-L-oxoproline; three molecules (A, B, C) in the asymmetric unit; both purified

Measured: binding

human ChaC2 E74Q (from UniProt Q8WUX2 1-184) (enzyme)
no binding: human ChaC2 E74Q (human) [1] | human ChaC2 E74Q (human) [2] | human ChaC2 E74Q (human) [3]

human ChaC2 E83Q (from UniProt Q8WUX2 1-184) (enzyme)
no binding: human ChaC2 E83Q (human) [4] | human ChaC2 E83Q (human) [5] | human ChaC2 E83Q (human) [6]
